This assay has as its system BDF1 mice, B16 melanoma ip, median survival T/C. Put plainly: NCI In Vivo Anticancer Drug Screen. Data for tumor model B16 Melanoma (intraperitoneal) in B6D2F1 (BDF1) mice. The conditions noted are these: T/C endpoint: median survival time, higher T/C = longer survival. The method, boiled down:
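Tumor-bearing mice received test compound or vehicle. Survival or tumor size was then measured in both groups. The treated-group figure was divided by the control-group figure.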

Setting [1] is: dose: 46.8 mg/kg/injection, schedule: Q01DX009 (ip), vehicle: saline.
[2] abbreviates: dose: 187.2 mg/kg/injection, schedule: Q04DX003 (ip), vehicle: saline.
The mark [3] stands for this setting: dose: 100.0 mg/kg/injection, schedule: Q01DX009 (ip), vehicle: saline.
Setting [4] is: dose: 200.0 mg/kg/injection, schedule: Q01DX009 (ip), vehicle: saline.
[5] abbreviates: dose: 200.0 mg/kg/injection, schedule: Q01DX009 (ip), vehicle: Klucel (hydroxypropylcellulose) (HPC).
[6] abbreviates: dose: 25.0 mg/kg/injection, schedule: Q01DX009 (ip), vehicle: Klucel (hydroxypropylcellulose) (HPC).

Structures are written as SMILES. The list is a part of this screen's results and no random one: it gathers tests that were run many times, whatever their T/C, doses with no T/C, and many T/C values between a quarter and a half above the control. Further doses and runs are listed elsewhere. T/C is the treated group as % of the vehicle group. Some doses have a count of surviving animals in place of a T/C: the source holds a T/C of zero for them, seemingly a mark for toxic or unscored doses. Some doses without a T/C left all or most animals alive at the check, yet need not have been tolerated: the source hardly ever lists a survival T/C far under the control, and the zero likely stands for such cases as well. Counts of survivors are from the toxicity check (mostly the fifth day) where no day follows; animals may have died later. Schedules are NCI's codes, read here as Q, the interval in days (D) or hours (H), X, the number of doses. For survival time, this PubChem deposit counts one and a half times the control or more as active, and values a quarter to a half above the control carry no call in these data; other NCI protocols may use other cut-offs. Some T/C values are followed by the survivors on the day toxicity was checked, most often the fifth; where none is given, no animal had died by that day. Some entries hold several experiments; the results are listed from low to high. Signs of the kind (2×) give the number of equal values in this list.

As to `COc1cccc2c1C(=O)c1c(O)c3c(c(O)c1C2=O)CC(O)(C(C)=O)CC3OC1CC(N)C(O)C(C)O1` (centres undefined), the T/C by setting is: (dose: 5.8 mg/kg/injection, schedule: Q01DX009 (ip), vehicle: saline) 132 % of control; (dose: 23.4 mg/kg/injection, schedule: Q04DX003 (ip), vehicle: saline) 125 % of control; under setting [1], 128 % of control; (dose: 46.8 mg/kg/injection, schedule: Q04DX003 (ip), vehicle: saline) 125 % of control; (dose: 93.6 mg/kg/injection, schedule: Q04DX003 (ip), vehicle: saline) 131 % of control; under setting [2], 135 % of control. For the same molecule, the survivor count is on record as 6 of 6 (dose: 40.0 mg/kg/injection, schedule: Q01DX007 (ip), vehicle: water); 8 of 8 (dose: 40.0 mg/kg/injection, schedule: Q01DX009 (ip), vehicle: water); 10 of 10 under setting [1]; 10 of 10 under setting [2].

As for `CO[C@@H](C=O)O[C@@H](C=O)CO`, the survivor count under setting [3] is on record as 1 of 10; the survivor count (dose: 100.0 mg/kg/injection, schedule: Q04DX003 (ip), vehicle: saline) is 10 of 10; the survivor count under setting [4] is reported as 0 of 10; the survivor count (dose: 200.0 mg/kg/injection, schedule: Q04DX003 (ip), vehicle: saline) is on record as 10 of 10; the survivor count (dose: 400.0 mg/kg/injection, schedule: Q04DX003 (ip), vehicle: saline) is recorded as 8 of 10.

Turning to `Nc1ccccc1SC1CC(=O)N(c2ccccc2)C1=O` (centres undefined), the survivor count is 10 of 10 under setting [5] and 9 of 10 (dose: 400.0 mg/kg/injection, schedule: Q01DX009 (ip), vehicle: Klucel (hydroxypropylcellulose) (HPC)).

As to `C(=C\c1cnc2ccccc2n1)/c1ccc2c(c1)OCO2`, the survivor count (dose: 300.0 mg/kg/injection, schedule: Q01DX009 (ip), vehicle: Klucel (hydroxypropylcellulose) (HPC)) is 10 of 10.

Take `CC(=O)N(NC(C)C)C(C)C`: the survivor count under setting [3] is given as 9 of 10.

Consider `O=C(CCc1ccc(O)cc1)c1c(O)cc(O)cc1O`, for which the survivor count (dose: 200.0 mg/kg/injection, schedule: Q01DX009 (ip), vehicle: saline + alcohol) is 0 of 10.

Consider `CN(N)P(=S)(c1ccccc1)N(C)N`, for which the survivor count under setting [6] is 7 of 10.

Consider `Cc1ccc(S(=O)(=O)N/N=C(\C(=O)O)c2ccccc2)cc1`, for which the survivor count reads like this: (dose: 50.0 mg/kg/injection, schedule: Q01DX009 (ip), vehicle: Klucel (hydroxypropylcellulose) (HPC)) 10 of 10; (dose: 100.0 mg/kg/injection, schedule: Q01DX009 (ip), vehicle: Klucel (hydroxypropylcellulose) (HPC)) 10 of 10; under setting [5], 10 of 10.

Consider `CC(=O)O[C@H]1CC[C@H]2[C@@H]3CC[C@H]4CC=C(C#N)C[C@]4(C)[C@H]3CC[C@]12C`, for which the survivor count reads like this: (dose: 6.25 mg/kg/injection, schedule: Q01DX009 (ip), vehicle: Klucel (hydroxypropylcellulose) (HPC)) 10 of 10; (dose: 12.5 mg/kg/injection, schedule: Q01DX009 (ip), vehicle: Klucel (hydroxypropylcellulose) (HPC)) 10 of 10; under setting [6], 10 of 10.

With `Cc1c(N)nc([C@H](CC(N)=O)NC[C@H](N)C(N)=O)nc1C(=O)N[C@H](C(=O)N[C@H](C)[C@@H](O)[C@H](C)C(=O)N[C@H](C(=O)NCCc1nc(-c2nc(C(=O)NCCC[S+](C)C)cs2)cs1)[C@@H](C)O)C(OC1OC(CO)C(O)C(O)C1OC1OC(CO)C(O)C(OC(N)=O)C1O)c1cnc[nH]1` (some centres undefined), the T/C by setting is: (dose: 0.5 mg/kg/injection, schedule: Q01DX009 (ip), vehicle: saline) 100, 104, 106, 107 % of control; (dose: 1.0 mg/kg/injection, schedule: Q01DX009 (ip), vehicle: saline) 92, 102, 107, 111, 132 % of control; (dose: 2.0 mg/kg/injection, schedule: Q01DX009 (ip), vehicle: saline, evaluated on day 5) 106, 108, 110, 116, 118 % of control; (dose: 2.0 mg/kg/injection, schedule: Q01DX009 (ip), vehicle: saline, evaluated on day 60) 106 % of control; (dose: 3.0 mg/kg/injection, schedule: Q01DX009 (ip), vehicle: saline, evaluated on day 45) 105 % of control; (dose: 3.0 mg/kg/injection, schedule: Q01DX009 (ip), vehicle: saline, evaluated on day 60) 92, 95, 104 (2×), 105, 107 (3×), 111 (2×), 121, 123 % of control. In addition, the T/C is, setting by setting: (dose: 4.0 mg/kg/injection, schedule: Q01DX009 (ip), vehicle: saline, evaluated on day 5) 97, 107, 110, 117, 137 % of control; (dose: 4.0 mg/kg/injection, schedule: Q01DX009 (ip), vehicle: saline, evaluated on day 60) 105 and 106 % of control; (dose: 6.0 mg/kg/injection, schedule: Q01DX009 (ip), vehicle: saline, evaluated on day 45) 111 % of control; (dose: 6.0 mg/kg/injection, schedule: Q01DX009 (ip), vehicle: saline, evaluated on day 60) 89 [5 of 6 alive], 90, 92, 107, 108, 109 (2×), 114, 116, 119, 121 (2×), 143 % of control; (dose: 8.0 mg/kg/injection, schedule: Q01DX009 (ip), vehicle: saline, evaluated on day 5) 98, 103, 108, 128, 142 % of control; (dose: 8.0 mg/kg/injection, schedule: Q01DX009 (ip), vehicle: saline, evaluated on day 60) 102 and 109 % of control. In addition, the T/C was 102 % of control (dose: 12.0 mg/kg/injection, schedule: Q01DX009 (ip), vehicle: saline, evaluated on day 45); 86, 92, 97, 104, 104 [5 of 6 alive], 105, 106, 107, 114 [5 of 6 alive], 116, 121, 122, 123 % of control (dose: 12.0 mg/kg/injection, schedule: Q01DX009 (ip), vehicle: saline, evaluated on day 60); 108 (2×), 113, 114, 134 % of control (dose: 16.0 mg/kg/injection, schedule: Q01DX009 (ip), vehicle: saline, evaluated on day 5); 111 and 115 % of control (dose: 16.0 mg/kg/injection, schedule: Q01DX009 (ip), vehicle: saline, evaluated on day 60); 97 % of control (dose: 24.0 mg/kg/injection, schedule: Q01DX009 (ip), vehicle: saline, evaluated on day 45); 88, 91, 94 [5 of 6 alive], 95, 102, 109, 115, 116, 125, 134 % of control (dose: 24.0 mg/kg/injection, schedule: Q01DX009 (ip), vehicle: saline, evaluated on day 60). Also, the T/C was 50, 51, 63, 77 % of control (dose: 32.0 mg/kg/injection, schedule: Q01DX009 (ip), vehicle: saline, evaluated on day 5); 117 % of control (dose: 32.0 mg/kg/injection, schedule: Q01DX009 (ip), vehicle: saline, evaluated on day 60); 32, 33, 41, 55 % of control (dose: 64.0 mg/kg/injection, schedule: Q01DX009 (ip), vehicle: saline). The survivor count by setting is: (dose: 3.0 mg/kg/injection, schedule: Q01DX009 (ip), vehicle: saline) 6 of 6; (dose: 24.0 mg/kg/injection, schedule: Q01DX009 (ip), vehicle: saline) 6 of 6; (dose: 31.3 mg/kg/injection, schedule: Q01DX009 (ip), vehicle: saline) 6 of 6; (dose: 32.0 mg/kg/injection, schedule: Q01DX009 (ip), vehicle: saline) 10 of 10; (dose: 62.5 mg/kg/injection, schedule: Q01DX009 (ip), vehicle: saline) 5 of 6; (dose: 125.0 mg/kg/injection, schedule: Q01DX009 (ip), vehicle: saline) 5 of 6. The survivor count (dose: 250.0 mg/kg/injection, schedule: Q01DX009 (ip), vehicle: saline) was 4 of 6.

Regarding `Nc1cc(Cl)c2cccnc2c1O`, the T/C (dose: 50.0 mg/kg/injection, schedule: Q01DX009 (ip), vehicle: saline) was 127 % of control. In addition, the survivor count reads like this: (dose: 75.0 mg/kg/injection, schedule: Q01DX009 (ip), vehicle: saline) 8 of 10; (dose: 150.0 mg/kg/injection, schedule: Q04DX003 (ip), vehicle: saline) 4 of 10.

On to `C1=C(c2ccccc2)CCC1`, for which the survivor count under setting [4] was 10 of 10.

(Values after PubChem BioAssay AID192 (DTP/NCI, 2004).)
